Test results as given in paper PMC5727386.
No constants are given. Whether binding was seen depends on the method and setting. For part of these data: Where a sequence is shown, tags or fusion partners need not be part of it.

Chains of the proteins cited; added tags and fusions are not shown.
UniProt P61586: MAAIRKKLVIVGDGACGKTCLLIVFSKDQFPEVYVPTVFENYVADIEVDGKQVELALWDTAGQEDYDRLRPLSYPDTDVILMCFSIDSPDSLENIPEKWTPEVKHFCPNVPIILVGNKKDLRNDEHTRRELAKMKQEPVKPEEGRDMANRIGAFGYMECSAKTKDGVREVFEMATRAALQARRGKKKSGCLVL
UniProt P60953: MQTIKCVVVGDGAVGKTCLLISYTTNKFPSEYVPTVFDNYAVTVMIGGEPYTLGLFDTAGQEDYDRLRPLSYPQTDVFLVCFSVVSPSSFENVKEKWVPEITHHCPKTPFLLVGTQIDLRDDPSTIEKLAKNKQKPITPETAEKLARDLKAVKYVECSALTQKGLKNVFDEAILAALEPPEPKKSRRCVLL

Legend:
[1] = molecular target: T1, His-tagged Bcr-Abl DH–PH tandem domain (residues 487–893) (UniProt P11274); assay: SEC; co-migration on analytical Superdex75 10/300; DH–PH or DH constructs mixed with GTPases 1:2, dialysed into EDTA- or MgCl2-containing buffer overnight at 4 °C; both purified
T1 sequence: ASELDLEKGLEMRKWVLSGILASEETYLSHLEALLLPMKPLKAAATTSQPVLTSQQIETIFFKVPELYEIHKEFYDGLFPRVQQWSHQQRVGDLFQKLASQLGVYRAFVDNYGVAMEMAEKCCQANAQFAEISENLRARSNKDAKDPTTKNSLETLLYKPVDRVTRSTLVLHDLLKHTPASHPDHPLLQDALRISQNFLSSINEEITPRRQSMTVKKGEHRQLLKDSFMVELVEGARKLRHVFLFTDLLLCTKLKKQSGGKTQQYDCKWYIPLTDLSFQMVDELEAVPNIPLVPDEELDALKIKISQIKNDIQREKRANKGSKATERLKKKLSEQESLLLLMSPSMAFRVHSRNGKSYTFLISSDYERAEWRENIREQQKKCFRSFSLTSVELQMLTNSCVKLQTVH

[2] = molecular target: T1, His-tagged Bcr-Abl DH–PH tandem domain (residues 487–893); assay: pull-down; Ni-NTA Sepharose; His-tagged DH–PH or DH constructs as bait, untagged GTPases as prey, 1:2 molar ratio; dialysed into 25 mM Tris-HCl pH 7.5, 150 mM NaCl, 2 mM DTT with 1 mM EDTA or 10 mM MgCl2; 2 h at 4 °C; Coomassie SDS-PAGE; both purified
[3] = molecular target: T2, Bcr-Abl DH-PH tandem domain (residues 487-893), sample of the GTPase interaction studies (UniProt P11274); assay: SEC; DH-PH or DH construct mixed with GTPase 1:2, dialysed overnight at 4 °C into 25 mM Tris-HCl pH 7.5, 150 mM NaCl, 2 mM DTT with 1 mM EDTA or 10 mM MgCl2; analytical Superdex75 10/300; both purified
T2 sequence: T1 sequence

Measured: binding

RhoA (from UniProt P61586 1-193) (enzyme)
no binding: [1] | [2] | [3]

Cdc42 (from UniProt P60953 1-191) (enzyme)
no binding: [1] | [2] | [3]
